The values below come from paper PMC12567083, “N-terminal oligomerization drives HDAC4 nuclear condensation and neurodevelopmental dysfunction in Drosophila” (Open Biology, 2025).

The assay has as its target T1, GFP-HDAC4^WT (GFP-tagged wild-type Drosophila HDAC4) (Drosophila) (UniProt Q9VYF3).
T1 sequence: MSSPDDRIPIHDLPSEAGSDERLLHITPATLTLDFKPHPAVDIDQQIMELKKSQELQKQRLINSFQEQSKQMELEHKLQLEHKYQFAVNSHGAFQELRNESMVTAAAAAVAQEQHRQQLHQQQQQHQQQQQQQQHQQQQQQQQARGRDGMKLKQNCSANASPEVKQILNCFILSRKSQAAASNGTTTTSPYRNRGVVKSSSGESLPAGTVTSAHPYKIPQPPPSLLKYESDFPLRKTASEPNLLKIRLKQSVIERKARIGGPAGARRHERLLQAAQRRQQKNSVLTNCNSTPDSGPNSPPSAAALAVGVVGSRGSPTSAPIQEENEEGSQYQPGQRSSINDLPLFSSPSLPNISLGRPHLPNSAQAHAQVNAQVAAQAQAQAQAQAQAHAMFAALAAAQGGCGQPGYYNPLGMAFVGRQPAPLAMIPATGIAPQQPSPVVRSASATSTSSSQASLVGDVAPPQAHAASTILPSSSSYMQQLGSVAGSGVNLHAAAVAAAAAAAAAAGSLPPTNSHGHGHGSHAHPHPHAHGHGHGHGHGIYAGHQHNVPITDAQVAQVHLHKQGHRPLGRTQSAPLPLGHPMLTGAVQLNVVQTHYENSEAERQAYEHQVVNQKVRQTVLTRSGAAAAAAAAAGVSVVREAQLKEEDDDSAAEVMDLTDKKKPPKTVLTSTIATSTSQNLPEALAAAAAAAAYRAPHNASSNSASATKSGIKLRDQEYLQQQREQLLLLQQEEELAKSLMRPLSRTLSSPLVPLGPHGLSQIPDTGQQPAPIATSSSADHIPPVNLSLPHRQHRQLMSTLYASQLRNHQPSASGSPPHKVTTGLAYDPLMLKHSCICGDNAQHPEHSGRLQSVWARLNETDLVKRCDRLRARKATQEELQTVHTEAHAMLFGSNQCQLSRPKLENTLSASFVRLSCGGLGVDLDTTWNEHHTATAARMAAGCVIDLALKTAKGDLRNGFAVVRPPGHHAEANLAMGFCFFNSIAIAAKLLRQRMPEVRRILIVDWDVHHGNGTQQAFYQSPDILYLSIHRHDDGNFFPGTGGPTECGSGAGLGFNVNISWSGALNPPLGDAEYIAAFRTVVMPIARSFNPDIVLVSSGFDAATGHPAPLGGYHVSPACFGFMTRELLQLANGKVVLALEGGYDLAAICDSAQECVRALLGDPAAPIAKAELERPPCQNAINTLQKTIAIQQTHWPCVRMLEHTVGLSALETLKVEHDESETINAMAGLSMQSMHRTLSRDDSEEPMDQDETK
In words: co-IP; GFP-HDAC4^WT precipitated with anti-GFP on protein A/G magnetic beads from 2 mg whole cell lysate of adult fly heads co-expressing Myc-tagged HDAC4 (elav-GAL4), overnight at 4°C; blot for Myc.

No constants are given. Whether binding was seen depends on the method and setting. Binding seen in cells or lysates may run through a third protein. Some binding calls cover weakened binding; strength is not graded here. Where a sequence is shown, tags or fusion partners need not be part of it.

B1: HDAC4^S69F-Myc (protein, UniProt Q9VYF3 1-1252)
chain: MSSPDDRIPIHDLPSEAGSDERLLHITPATLTLDFKPHPAVDIDQQIMELKKSQELQKQRLINSFQEQFKQMELEHKLQLEHKYQFAVNSHGAFQELRNESMVTAAAAAVAQEQHRQQLHQQQQQHQQQQQQQQHQQQQQQQQARGRDGMKLKQNCSANASPEVKQILNCFILSRKSQAAASNGTTTTSPYRNRGVVKSSSGESLPAGTVTSAHPYKIPQPPPSLLKYESDFPLRKTASEPNLLKIRLKQSVIERKARIGGPAGARRHERLLQAAQRRQQKNSVLTNCNSTPDSGPNSPPSAAALAVGVVGSRGSPTSAPIQEENEEGSQYQPGQRSSINDLPLFSSPSLPNISLGRPHLPNSAQAHAQVNAQVAAQAQAQAQAQAQAHAMFAALAAAQGGCGQPGYYNPLGMAFVGRQPAPLAMIPATGIAPQQPSPVVRSASATSTSSSQASLVGDVAPPQAHAASTILPSSSSYMQQLGSVAGSGVNLHAAAVAAAAAAAAAAGSLPPTNSHGHGHGSHAHPHPHAHGHGHGHGHGIYAGHQHNVPITDAQVAQVHLHKQGHRPLGRTQSAPLPLGHPMLTGAVQLNVVQTHYENSEAERQAYEHQVVNQKVRQTVLTRSGAAAAAAAAAGVSVVREAQLKEEDDDSAAEVMDLTDKKKPPKTVLTSTIATSTSQNLPEALAAAAAAAAYRAPHNASSNSASATKSGIKLRDQEYLQQQREQLLLLQQEEELAKSLMRPLSRTLSSPLVPLGPHGLSQIPDTGQQPAPIATSSSADHIPPVNLSLPHRQHRQLMSTLYASQLRNHQPSASGSPPHKVTTGLAYDPLMLKHSCICGDNAQHPEHSGRLQSVWARLNETDLVKRCDRLRARKATQEELQTVHTEAHAMLFGSNQCQLSRPKLENTLSASFVRLSCGGLGVDLDTTWNEHHTATAARMAAGCVIDLALKTAKGDLRNGFAVVRPPGHHAEANLAMGFCFFNSIAIAAKLLRQRMPEVRRILIVDWDVHHGNGTQQAFYQSPDILYLSIHRHDDGNFFPGTGGPTECGSGAGLGFNVNISWSGALNPPLGDAEYIAAFRTVVMPIARSFNPDIVLVSSGFDAATGHPAPLGGYHVSPACFGFMTRELLQLANGKVVLALEGGYDLAAICDSAQECVRALLGDPAAPIAKAELERPPCQNAINTLQKTIAIQQTHWPCVRMLEHTVGLSALETLKVEHDESETINAMAGLSMQSMHRTLSRDDSEEPMDQDETK
Turning to B1, the binding result is recorded as “binds”.

B2: HDAC4^WT-Myc (wild-type Drosophila HDAC4 with C-terminal 6x Myc tag) (protein, UniProt Q9VYF3 1-1252)
chain: MSSPDDRIPIHDLPSEAGSDERLLHITPATLTLDFKPHPAVDIDQQIMELKKSQELQKQRLINSFQEQSKQMELEHKLQLEHKYQFAVNSHGAFQELRNESMVTAAAAAVAQEQHRQQLHQQQQQHQQQQQQQQHQQQQQQQQARGRDGMKLKQNCSANASPEVKQILNCFILSRKSQAAASNGTTTTSPYRNRGVVKSSSGESLPAGTVTSAHPYKIPQPPPSLLKYESDFPLRKTASEPNLLKIRLKQSVIERKARIGGPAGARRHERLLQAAQRRQQKNSVLTNCNSTPDSGPNSPPSAAALAVGVVGSRGSPTSAPIQEENEEGSQYQPGQRSSINDLPLFSSPSLPNISLGRPHLPNSAQAHAQVNAQVAAQAQAQAQAQAQAHAMFAALAAAQGGCGQPGYYNPLGMAFVGRQPAPLAMIPATGIAPQQPSPVVRSASATSTSSSQASLVGDVAPPQAHAASTILPSSSSYMQQLGSVAGSGVNLHAAAVAAAAAAAAAAGSLPPTNSHGHGHGSHAHPHPHAHGHGHGHGHGIYAGHQHNVPITDAQVAQVHLHKQGHRPLGRTQSAPLPLGHPMLTGAVQLNVVQTHYENSEAERQAYEHQVVNQKVRQTVLTRSGAAAAAAAAAGVSVVREAQLKEEDDDSAAEVMDLTDKKKPPKTVLTSTIATSTSQNLPEALAAAAAAAAYRAPHNASSNSASATKSGIKLRDQEYLQQQREQLLLLQQEEELAKSLMRPLSRTLSSPLVPLGPHGLSQIPDTGQQPAPIATSSSADHIPPVNLSLPHRQHRQLMSTLYASQLRNHQPSASGSPPHKVTTGLAYDPLMLKHSCICGDNAQHPEHSGRLQSVWARLNETDLVKRCDRLRARKATQEELQTVHTEAHAMLFGSNQCQLSRPKLENTLSASFVRLSCGGLGVDLDTTWNEHHTATAARMAAGCVIDLALKTAKGDLRNGFAVVRPPGHHAEANLAMGFCFFNSIAIAAKLLRQRMPEVRRILIVDWDVHHGNGTQQAFYQSPDILYLSIHRHDDGNFFPGTGGPTECGSGAGLGFNVNISWSGALNPPLGDAEYIAAFRTVVMPIARSFNPDIVLVSSGFDAATGHPAPLGGYHVSPACFGFMTRELLQLANGKVVLALEGGYDLAAICDSAQECVRALLGDPAAPIAKAELERPPCQNAINTLQKTIAIQQTHWPCVRMLEHTVGLSALETLKVEHDESETINAMAGLSMQSMHRTLSRDDSEEPMDQDETK
Take B2: the binding entry is reported as “binds”.
